# Laboratory results as given in patent US20200261534A1 (priority 2017, published 2020).
# Experiment: general procedure: Fmoc solid-phase peptide synthesis; TBTU/DIEA
# Details: whole synthesis
sequence,measurement,value
AXKVVILKXATAYILS,final HPLC purity,95.11%
